{"source": "the supplement of paper PMC7125110", "parents": {"B1": {"name": "glmS ribozyme (parent)", "chain": "AUAAAAGCGCCAGAACUACAGAAAUGUAGUUGACGAGGAGGAGGUUUAUCGAAUUUUCGGCGGAUGCCUCCAAA"}}, "note": "± gives the standard error. Many entries were measured with a wide error.", "data": [{"variants_of": "B1", "experiment": "kcat; higher = faster cleavage; RNA array", "settings": "with glucosamine-6-phosphate", "in_short": "(§1)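 Glucosamine-6-phosphate (40 μM to 10 mM) in HEPES/KCl/Mg(OAc)2 buffer was flowed over sequenced MiSeq chips, and tiles were imaged over ~14 h. Barcoded ribozyme variants there had been transcribed in situ by E. coli RNA polymerase and were tracked through a hybridised Cy3 probe at 37 °C. One- or two-exponential decay fits to per-tile medians, normalised to baseline and to non-cleaving reference variants, gave kobs. kcat and KM came from weighted Michaelis–Menten fits across concentrations.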", "units": {"kcat": "s⁻¹"}, "values": [{"variant": "U2C", "kcat": "0.0171 ± 0.011"}, {"variant": "A6G A15C A53G", "kcat": "3.4e-05 ± 1.8e-05"}, {"variant": "A6U G51C U69G", "kcat": "3.25e-05 ± 1.8e-05"}, {"variant": "G7C A14G", "kcat": "< 1e-05"}, {"variant": "G7U C10U G35A C68G", "kcat": "0.000129 ± 9.3e-05"}, {"variant": "G9U G44C", "kcat": "< 1e-05"}, {"variant": "C10A C34U G44A C70A", "kcat": "3.25e-05 ± 2.3e-05"}, {"variant": "C10A C67A", "kcat": "1.61e-05 ± 1.2e-05"}, {"variant": "C10A C70A", "kcat": "4.61e-05 ± 2.5e-05"}, {"variant": "C10A G63U", "kcat": "< 1e-05"}, {"variant": "C10A U47A C70A", "kcat": "3.45e-05 ± 2.8e-05"}, {"variant": "C10A U69A", "kcat": "6.07e-05 ± 3.2e-05"}, {"variant": "C10G G13C", "kcat": "1.15e-05 ± 1e-05"}, {"variant": "C10U C70U", "kcat": "2.53e-05 ± 1.3e-06"}, {"variant": "C10U C71A", "kcat": "1.16e-05 ± 6.3e-06"}, {"variant": "C11A U30A U45G", "kcat": "2.81e-05 ± 1.1e-06"}, {"variant": "C11A U56A", "kcat": "0.000143 ± 1.9e-06"}, {"variant": "C11G C58U", "kcat": "1.49e-05 ± 8e-06"}, {"variant": "C11G C70A", "kcat": "2.77e-05 ± 1.9e-05"}, {"variant": "C11G U46G C58G C67U", "kcat": "0.00034 ± 0.00027"}, {"variant": "C11G U69G", "kcat": "6.17e-05 ± 3.2e-05"}, {"variant": "C11U A15U U57G C58U C67U", "kcat": "4.57e-05 ± 3.3e-05"}, {"variant": "C11U G29U U54A", "kcat": "0.00045 ± 0.00029"}, {"variant": "C11U G38A C67G", "kcat": "3.91e-05 ± 2.1e-05"}, {"variant": "C11U U65A C71U", "kcat": "0.000194 ± 1.4e-05"}, {"variant": "A12C A14G", "kcat": "0.0399 ± 0.022"}, {"variant": "A12C C16G", "kcat": "0.0065 ± 0.0038"}, {"variant": "A12C G37U G66U", "kcat": "1.03e-05 ± 6.6e-06"}, {"variant": "A12C U47A C58U C67U C68A", "kcat": "2.23e-05 ± 1.6e-05"}, {"variant": "A12C U56A A64C", "kcat": "2.44e-05 ± 1.3e-05"}, {"variant": "A12C U56C", "kcat": "0.00595 ± 0.0046"}, {"variant": "A12G A14U G32U G60A G66U", "kcat": "< 1e-05"}, {"variant": "A12G G44A", "kcat": "2.03e-05 ± 1e-05"}, {"variant": "A12G U31A G32U", "kcat": "6.44e-05 ± 1.1e-06"}, {"variant": "A12U C71A", "kcat": "0.0145 ± 0.013"}, {"variant": "A12U G29A", "kcat": "0.00565 ± 0.004"}, {"variant": "G13A A15C", "kcat": "0.000242 ± 3.2e-05"}, {"variant": "G13A A15G", "kcat": "0.000875 ± 0.00018"}, {"variant": "G13A A42G C70U C71A", "kcat": "1.41e-05 ± 7.7e-06"}, {"variant": "G13A C50G", "kcat": "4.75e-05 ± 2.8e-05"}, {"variant": "G13A C58U", "kcat": "0.000256 ± 0.00015"}, {"variant": "G13C A14C C61A C67U", "kcat": "3.08e-05 ± 1.3e-05"}, {"variant": "G13U A53G C68G", "kcat": "4.16e-05 ± 3.1e-06"}, {"variant": "A14C C16G", "kcat": "8.6e-05 ± 5.5e-06"}, {"variant": "A14C C70U", "kcat": "0.0166 ± 0.016"}, {"variant": "A14C G32U", "kcat": "0.0014 ± 6.9e-05"}, {"variant": "A14G A53G", "kcat": "0.0255 ± 0.013"}, {"variant": "A14G C34U C68G", "kcat": "4.51e-05 ± 2.3e-05"}, {"variant": "A14G G29C U56A", "kcat": "0.00138 ± 0.00036"}, {"variant": "A14G G32C U49G", "kcat": "1.97e-05 ± 1.3e-05"}, {"variant": "A14G G35C", "kcat": "< 1e-05"}, {"variant": "A14G G51U", "kcat": "< 1e-05"}, {"variant": "A14G G66A", "kcat": "0.00673 ± 0.0035"}, {"variant": "A14G U45G", "kcat": "0.0225 ± 0.0076"}, {"variant": "A14G U47G", "kcat": "0.0391 ± 0.033"}, {"variant": "A14G U49A", "kcat": "3.99e-05 ± 1e-06"}, {"variant": "A14G U54G", "kcat": "0.0236 ± 0.018"}]}, {"variants_of": "B1", "experiment": "KM; higher = weaker cofactor use; RNA array", "settings": "with glucosamine-6-phosphate", "in_short": "as §1", "units": {"KM": "µM"}, "values": [{"variant": "U2C", "KM": "717 ± 630"}, {"variant": "C10U C70U", "KM": "777 ± 240"}, {"variant": "C11A U30A U45G", "KM": "3690 ± 410"}, {"variant": "C11A U56A", "KM": "2090 ± 78"}, {"variant": "C11U U65A C71U", "KM": "3610 ± 470"}, {"variant": "A12C A14G", "KM": "3770 ± 2600"}, {"variant": "A12C C16G", "KM": "5060 ± 3700"}, {"variant": "A12C U56C", "KM": "11500 ± 10000"}, {"variant": "A12G U31A G32U", "KM": "5790 ± 240"}, {"variant": "G13A A15C", "KM": "2680 ± 760"}, {"variant": "G13A A15G", "KM": "1840 ± 670"}, {"variant": "G13A C58U", "KM": "18600 ± 16000"}, {"variant": "G13U A53G C68G", "KM": "79.2 ± 50"}, {"variant": "A14C C16G", "KM": "438 ± 180"}, {"variant": "A14C G32U", "KM": "3610 ± 300"}, {"variant": "A14G A53G", "KM": "635 ± 440"}, {"variant": "A14G G29C U56A", "KM": "1960 ± 970"}, {"variant": "A14G G35C", "KM": "95.6 ± 49"}, {"variant": "A14G G66A", "KM": "242 ± 180"}, {"variant": "A14G U45G", "KM": "3450 ± 1400"}, {"variant": "A14G U49A", "KM": "773 ± 130"}, {"variant": "A14G U54G", "KM": "973 ± 960"}]}, {"variants_of": "B1", "experiment": "self-cleavage kobs at 10000 uM GlcN6P; higher = faster cleavage; RNA array", "settings": "with glucosamine-6-phosphate", "in_short": "as §1", "units": {"self-cleavage kobs at 10000 uM GlcN6P": "s⁻¹"}, "values": [{"variant": "A6G A15C A53G", "self-cleavage kobs at 10000 uM GlcN6P": "1.9e-05 ± 1.6e-05"}, {"variant": "C10A C70A", "self-cleavage kobs at 10000 uM GlcN6P": "1.96e-05 ± 1.1e-05"}, {"variant": "C10A U47A C70A", "self-cleavage kobs at 10000 uM GlcN6P": "2.58e-05 ± 2.3e-05"}, {"variant": "C11G U69G", "self-cleavage kobs at 10000 uM GlcN6P": "2.05e-05 ± 1.2e-05"}, {"variant": "C11U A15U U57G C58U C67U", "self-cleavage kobs at 10000 uM GlcN6P": "2.06e-05 ± 1.8e-05"}, {"variant": "A12C U56A A64C", "self-cleavage kobs at 10000 uM GlcN6P": "3.13e-05 ± 1.6e-05"}, {"variant": "A12G G44A", "self-cleavage kobs at 10000 uM GlcN6P": "1.39e-05 ± 1.2e-05"}]}, {"variants_of": "B1", "experiment": "self-cleavage kobs at 640 uM GlcN6P; higher = faster cleavage; RNA array", "settings": "with glucosamine-6-phosphate", "in_short": "as §1", "units": {"self-cleavage kobs at 640 uM GlcN6P": "s⁻¹"}, "values": [{"variant": "A6U G51C U69G", "self-cleavage kobs at 640 uM GlcN6P": "5.61e-05 ± 3e-05"}, {"variant": "G7U C10U G35A C68G", "self-cleavage kobs at 640 uM GlcN6P": "0.000937 ± 0.00048"}, {"variant": "C10A C34U G44A C70A", "self-cleavage kobs at 640 uM GlcN6P": "9.27e-05 ± 5.4e-05"}, {"variant": "C10A C67A", "self-cleavage kobs at 640 uM GlcN6P": "0.000698 ± 0.00046"}, {"variant": "C10A U47A C70A", "self-cleavage kobs at 640 uM GlcN6P": "3.8e-05 ± 3.3e-05"}, {"variant": "G13A C58U", "self-cleavage kobs at 640 uM GlcN6P": "2.22e-05 ± 1.9e-05"}, {"variant": "G13U A53G C68G", "self-cleavage kobs at 640 uM GlcN6P": "3.25e-05 ± 2.5e-05"}, {"variant": "A14G C34U C68G", "self-cleavage kobs at 640 uM GlcN6P": "3.17e-05 ± 2.9e-05"}]}, {"variants_of": "B1", "experiment": "self-cleavage kobs at 40 uM GlcN6P; higher = faster cleavage; RNA array", "settings": "with glucosamine-6-phosphate", "in_short": "as §1", "units": {"self-cleavage kobs at 40 uM GlcN6P": "s⁻¹"}, "values": [{"variant": "G7U C10U G35A C68G", "self-cleavage kobs at 40 uM GlcN6P": "5.39e-05 ± 3.1e-05"}, {"variant": "C10A C34U G44A C70A", "self-cleavage kobs at 40 uM GlcN6P": "3.03e-05 ± 2.8e-05"}, {"variant": "C10A U69A", "self-cleavage kobs at 40 uM GlcN6P": "2.2e-05 ± 1.9e-05"}, {"variant": "C11U A15U U57G C58U C67U", "self-cleavage kobs at 40 uM GlcN6P": "2.89e-05 ± 2e-05"}, {"variant": "A12C U56C", "self-cleavage kobs at 40 uM GlcN6P": "2.87e-05 ± 1.6e-05"}, {"variant": "G13A C50G", "self-cleavage kobs at 40 uM GlcN6P": "3.31e-05 ± 2.2e-05"}, {"variant": "A14C G32U", "self-cleavage kobs at 40 uM GlcN6P": "2.17e-05 ± 1.4e-05"}]}, {"variants_of": "B1", "experiment": "self-cleavage kobs at 160 uM GlcN6P; higher = faster cleavage; RNA array", "settings": "with glucosamine-6-phosphate", "in_short": "as §1", "units": {"self-cleavage kobs at 160 uM GlcN6P": "s⁻¹"}, "values": [{"variant": "C10A U69A", "self-cleavage kobs at 160 uM GlcN6P": "3.26e-05 ± 2.1e-05"}, {"variant": "C11G C70A", "self-cleavage kobs at 160 uM GlcN6P": "0.000503 ± 0.00028"}, {"variant": "C11U A15U U57G C58U C67U", "self-cleavage kobs at 160 uM GlcN6P": "2.64e-05 ± 1.7e-05"}]}, {"variants_of": "B1", "experiment": "self-cleavage kobs at 2500 uM GlcN6P; higher = faster cleavage; RNA array", "settings": "with glucosamine-6-phosphate", "in_short": "as §1", "units": {"self-cleavage kobs at 2500 uM GlcN6P": "s⁻¹"}, "values": [{"variant": "C11G C70A", "self-cleavage kobs at 2500 uM GlcN6P": "0.000256 ± 0.00014"}, {"variant": "A12C U56A A64C", "self-cleavage kobs at 2500 uM GlcN6P": "1.69e-05 ± 9.1e-06"}, {"variant": "G13A C58U", "self-cleavage kobs at 2500 uM GlcN6P": "2.73e-05 ± 1.4e-05"}, {"variant": "A14G U49A", "self-cleavage kobs at 2500 uM GlcN6P": "3.19e-05 ± 1.9e-05"}]}]}
